Data published in the supplement of paper PMC7666118.
The other results are listed elsewhere or left out.

Sequences of proteins named here, by UniProt entry; tags and fusion partners are left off. A change or cut given only in a name is not applied to a line headed by its entry.
UniProt Q6NUQ1: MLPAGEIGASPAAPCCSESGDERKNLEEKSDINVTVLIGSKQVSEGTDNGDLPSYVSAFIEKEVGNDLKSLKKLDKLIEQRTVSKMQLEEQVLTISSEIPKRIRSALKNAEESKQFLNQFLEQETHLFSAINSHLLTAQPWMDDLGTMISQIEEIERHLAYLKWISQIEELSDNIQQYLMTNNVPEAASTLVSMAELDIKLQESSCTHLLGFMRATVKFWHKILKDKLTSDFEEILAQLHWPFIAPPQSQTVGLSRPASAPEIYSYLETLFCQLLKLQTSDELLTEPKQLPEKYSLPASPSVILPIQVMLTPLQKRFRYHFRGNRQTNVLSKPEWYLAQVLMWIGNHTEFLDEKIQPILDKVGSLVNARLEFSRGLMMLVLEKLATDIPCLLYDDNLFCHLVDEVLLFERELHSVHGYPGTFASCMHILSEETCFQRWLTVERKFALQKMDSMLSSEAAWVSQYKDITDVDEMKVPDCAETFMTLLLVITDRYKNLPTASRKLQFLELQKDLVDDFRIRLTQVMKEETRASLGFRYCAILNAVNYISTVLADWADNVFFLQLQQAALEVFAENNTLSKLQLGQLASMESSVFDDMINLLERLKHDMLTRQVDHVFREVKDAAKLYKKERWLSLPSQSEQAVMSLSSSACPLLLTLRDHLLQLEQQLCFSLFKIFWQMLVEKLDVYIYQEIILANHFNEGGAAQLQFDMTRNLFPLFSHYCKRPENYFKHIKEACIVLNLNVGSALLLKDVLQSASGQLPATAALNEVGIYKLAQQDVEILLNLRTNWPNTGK
UniProt O00237: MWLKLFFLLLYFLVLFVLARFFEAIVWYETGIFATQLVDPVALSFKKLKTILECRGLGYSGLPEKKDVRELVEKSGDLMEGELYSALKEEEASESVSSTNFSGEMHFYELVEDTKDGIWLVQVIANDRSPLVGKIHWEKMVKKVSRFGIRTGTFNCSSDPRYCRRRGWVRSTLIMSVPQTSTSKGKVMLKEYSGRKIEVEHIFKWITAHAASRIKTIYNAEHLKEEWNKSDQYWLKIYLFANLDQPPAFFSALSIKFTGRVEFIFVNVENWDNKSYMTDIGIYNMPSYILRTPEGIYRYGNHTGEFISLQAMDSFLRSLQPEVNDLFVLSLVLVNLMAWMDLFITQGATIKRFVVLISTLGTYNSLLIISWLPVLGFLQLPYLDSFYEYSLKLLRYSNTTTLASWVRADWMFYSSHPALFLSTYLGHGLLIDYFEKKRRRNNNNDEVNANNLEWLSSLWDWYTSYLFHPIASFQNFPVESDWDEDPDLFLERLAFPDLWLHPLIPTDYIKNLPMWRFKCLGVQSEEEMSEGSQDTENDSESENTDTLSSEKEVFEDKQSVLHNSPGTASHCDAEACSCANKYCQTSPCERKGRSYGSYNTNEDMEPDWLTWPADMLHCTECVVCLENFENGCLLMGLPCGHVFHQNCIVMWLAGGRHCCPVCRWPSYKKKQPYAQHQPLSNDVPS
UniProt O75116: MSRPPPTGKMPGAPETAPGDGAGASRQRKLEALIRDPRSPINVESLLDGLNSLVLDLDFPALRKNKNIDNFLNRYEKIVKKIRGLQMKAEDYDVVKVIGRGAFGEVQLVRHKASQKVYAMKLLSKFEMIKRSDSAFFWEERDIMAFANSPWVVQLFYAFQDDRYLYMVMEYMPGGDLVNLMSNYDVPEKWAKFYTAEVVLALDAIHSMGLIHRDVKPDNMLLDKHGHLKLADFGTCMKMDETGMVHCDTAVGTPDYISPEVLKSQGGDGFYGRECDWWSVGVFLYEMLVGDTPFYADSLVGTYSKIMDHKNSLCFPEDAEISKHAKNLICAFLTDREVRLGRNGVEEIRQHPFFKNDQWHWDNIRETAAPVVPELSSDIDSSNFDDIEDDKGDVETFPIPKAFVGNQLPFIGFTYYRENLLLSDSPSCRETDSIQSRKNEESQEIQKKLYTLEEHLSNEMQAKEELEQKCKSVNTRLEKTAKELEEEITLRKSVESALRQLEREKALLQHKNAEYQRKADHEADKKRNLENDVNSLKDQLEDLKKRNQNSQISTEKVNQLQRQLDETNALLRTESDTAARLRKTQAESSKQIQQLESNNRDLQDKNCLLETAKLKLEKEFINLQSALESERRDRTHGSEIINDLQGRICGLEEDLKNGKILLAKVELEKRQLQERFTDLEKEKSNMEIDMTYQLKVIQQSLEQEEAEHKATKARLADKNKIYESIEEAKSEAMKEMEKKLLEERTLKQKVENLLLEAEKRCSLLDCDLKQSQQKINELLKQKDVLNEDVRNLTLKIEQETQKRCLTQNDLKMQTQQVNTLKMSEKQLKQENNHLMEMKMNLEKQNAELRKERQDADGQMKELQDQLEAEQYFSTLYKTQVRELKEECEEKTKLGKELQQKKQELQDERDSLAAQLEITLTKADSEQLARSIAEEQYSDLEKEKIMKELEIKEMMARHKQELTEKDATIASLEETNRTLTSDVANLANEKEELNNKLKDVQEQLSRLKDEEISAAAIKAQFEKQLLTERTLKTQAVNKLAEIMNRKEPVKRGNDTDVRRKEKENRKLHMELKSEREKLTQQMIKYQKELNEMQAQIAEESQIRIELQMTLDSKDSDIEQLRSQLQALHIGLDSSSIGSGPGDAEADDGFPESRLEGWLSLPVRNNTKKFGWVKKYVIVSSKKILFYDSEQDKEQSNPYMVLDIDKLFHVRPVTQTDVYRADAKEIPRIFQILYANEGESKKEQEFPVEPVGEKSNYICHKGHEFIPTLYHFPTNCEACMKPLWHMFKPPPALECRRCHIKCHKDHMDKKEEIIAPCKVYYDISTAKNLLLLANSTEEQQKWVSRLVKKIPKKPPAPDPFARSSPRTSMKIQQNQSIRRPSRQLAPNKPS
UniProt P46063: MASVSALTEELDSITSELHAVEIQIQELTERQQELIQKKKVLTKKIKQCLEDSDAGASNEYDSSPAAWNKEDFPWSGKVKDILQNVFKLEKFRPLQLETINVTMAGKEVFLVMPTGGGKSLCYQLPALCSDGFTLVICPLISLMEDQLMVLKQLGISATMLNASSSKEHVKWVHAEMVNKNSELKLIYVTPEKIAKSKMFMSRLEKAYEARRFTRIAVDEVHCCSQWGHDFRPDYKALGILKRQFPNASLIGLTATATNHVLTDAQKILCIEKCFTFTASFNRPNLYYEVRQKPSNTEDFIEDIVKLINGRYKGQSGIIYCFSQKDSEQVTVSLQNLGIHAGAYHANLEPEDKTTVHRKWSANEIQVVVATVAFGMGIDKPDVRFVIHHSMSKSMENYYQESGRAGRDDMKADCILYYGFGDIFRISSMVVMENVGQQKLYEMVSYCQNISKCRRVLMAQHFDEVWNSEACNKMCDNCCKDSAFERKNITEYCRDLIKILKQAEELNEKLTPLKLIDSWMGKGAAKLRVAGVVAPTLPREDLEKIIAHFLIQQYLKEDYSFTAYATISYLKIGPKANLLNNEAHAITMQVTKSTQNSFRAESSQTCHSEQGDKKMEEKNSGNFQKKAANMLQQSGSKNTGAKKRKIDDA
UniProt Q8IXI1, whole entry, looked up: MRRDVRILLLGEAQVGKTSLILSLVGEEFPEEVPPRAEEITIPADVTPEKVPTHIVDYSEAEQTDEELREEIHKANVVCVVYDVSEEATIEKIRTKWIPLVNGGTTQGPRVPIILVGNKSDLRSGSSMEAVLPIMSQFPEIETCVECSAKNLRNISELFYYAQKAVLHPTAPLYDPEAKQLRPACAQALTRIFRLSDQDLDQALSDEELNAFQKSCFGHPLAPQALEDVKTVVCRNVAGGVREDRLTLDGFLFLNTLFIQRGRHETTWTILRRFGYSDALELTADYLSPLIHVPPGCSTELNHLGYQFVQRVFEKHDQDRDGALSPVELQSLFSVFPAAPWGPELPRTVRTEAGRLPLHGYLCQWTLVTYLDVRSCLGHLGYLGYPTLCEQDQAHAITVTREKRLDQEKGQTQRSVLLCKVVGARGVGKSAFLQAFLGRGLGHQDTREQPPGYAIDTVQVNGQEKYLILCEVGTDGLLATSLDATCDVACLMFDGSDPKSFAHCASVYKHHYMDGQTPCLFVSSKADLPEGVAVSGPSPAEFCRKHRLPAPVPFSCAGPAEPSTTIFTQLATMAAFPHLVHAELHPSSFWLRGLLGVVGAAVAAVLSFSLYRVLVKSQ
UniProt O00422: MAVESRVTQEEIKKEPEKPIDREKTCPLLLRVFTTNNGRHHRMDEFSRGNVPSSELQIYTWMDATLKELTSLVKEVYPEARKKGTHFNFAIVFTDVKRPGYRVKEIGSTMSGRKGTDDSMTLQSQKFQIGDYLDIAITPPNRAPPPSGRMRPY
UniProt Q7L523, whole entry: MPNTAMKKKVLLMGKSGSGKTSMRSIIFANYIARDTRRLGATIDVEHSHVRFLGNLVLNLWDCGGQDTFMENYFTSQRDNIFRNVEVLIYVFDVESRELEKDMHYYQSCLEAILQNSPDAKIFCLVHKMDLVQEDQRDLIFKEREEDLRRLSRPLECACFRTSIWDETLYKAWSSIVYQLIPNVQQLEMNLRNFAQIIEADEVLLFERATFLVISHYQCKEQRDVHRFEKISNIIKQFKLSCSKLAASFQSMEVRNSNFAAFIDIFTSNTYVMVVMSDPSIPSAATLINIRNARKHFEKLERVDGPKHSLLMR
UniProt Q9Y512: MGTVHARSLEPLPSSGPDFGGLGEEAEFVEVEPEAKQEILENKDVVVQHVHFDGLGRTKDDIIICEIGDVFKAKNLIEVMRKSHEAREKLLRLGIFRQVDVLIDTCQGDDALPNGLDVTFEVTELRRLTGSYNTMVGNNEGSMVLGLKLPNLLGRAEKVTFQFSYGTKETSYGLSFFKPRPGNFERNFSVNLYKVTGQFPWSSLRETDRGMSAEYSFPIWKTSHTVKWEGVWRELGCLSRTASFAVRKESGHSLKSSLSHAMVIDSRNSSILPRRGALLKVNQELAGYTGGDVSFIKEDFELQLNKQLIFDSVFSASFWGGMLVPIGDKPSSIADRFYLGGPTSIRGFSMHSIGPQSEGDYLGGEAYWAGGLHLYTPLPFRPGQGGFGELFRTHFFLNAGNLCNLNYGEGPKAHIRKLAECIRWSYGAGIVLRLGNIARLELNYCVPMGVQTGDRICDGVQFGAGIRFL
UniProt Q9HA92: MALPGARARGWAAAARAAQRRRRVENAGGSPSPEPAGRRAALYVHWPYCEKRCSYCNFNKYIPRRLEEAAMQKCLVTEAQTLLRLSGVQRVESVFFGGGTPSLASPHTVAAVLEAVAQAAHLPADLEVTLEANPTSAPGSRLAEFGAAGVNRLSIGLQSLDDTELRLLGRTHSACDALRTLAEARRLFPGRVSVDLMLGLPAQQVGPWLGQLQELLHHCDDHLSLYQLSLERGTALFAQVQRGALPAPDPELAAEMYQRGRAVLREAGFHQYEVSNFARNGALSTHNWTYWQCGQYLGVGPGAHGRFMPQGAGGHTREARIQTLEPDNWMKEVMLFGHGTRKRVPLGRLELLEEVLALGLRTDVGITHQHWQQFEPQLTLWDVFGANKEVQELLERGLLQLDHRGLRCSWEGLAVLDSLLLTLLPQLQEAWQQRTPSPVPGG
UniProt Q8IZ73: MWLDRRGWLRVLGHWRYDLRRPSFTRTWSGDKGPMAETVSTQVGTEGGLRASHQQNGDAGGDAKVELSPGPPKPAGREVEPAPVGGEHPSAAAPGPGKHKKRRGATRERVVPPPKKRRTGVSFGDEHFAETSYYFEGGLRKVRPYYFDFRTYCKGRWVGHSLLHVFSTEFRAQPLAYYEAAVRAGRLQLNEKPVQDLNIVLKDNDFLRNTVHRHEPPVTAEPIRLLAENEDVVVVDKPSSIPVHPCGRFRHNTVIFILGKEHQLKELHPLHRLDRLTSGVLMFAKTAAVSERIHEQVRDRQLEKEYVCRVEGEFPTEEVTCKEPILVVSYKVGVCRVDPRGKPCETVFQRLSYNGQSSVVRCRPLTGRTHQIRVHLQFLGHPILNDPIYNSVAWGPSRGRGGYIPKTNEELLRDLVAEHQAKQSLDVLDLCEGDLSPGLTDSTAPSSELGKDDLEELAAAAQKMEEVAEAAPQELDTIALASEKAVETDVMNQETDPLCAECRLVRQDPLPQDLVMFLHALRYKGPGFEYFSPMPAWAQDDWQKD
UniProt P31949: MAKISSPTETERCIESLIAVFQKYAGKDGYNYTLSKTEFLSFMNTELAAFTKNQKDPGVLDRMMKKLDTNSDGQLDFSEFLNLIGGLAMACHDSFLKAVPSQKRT
UniProt Q9Y3V2: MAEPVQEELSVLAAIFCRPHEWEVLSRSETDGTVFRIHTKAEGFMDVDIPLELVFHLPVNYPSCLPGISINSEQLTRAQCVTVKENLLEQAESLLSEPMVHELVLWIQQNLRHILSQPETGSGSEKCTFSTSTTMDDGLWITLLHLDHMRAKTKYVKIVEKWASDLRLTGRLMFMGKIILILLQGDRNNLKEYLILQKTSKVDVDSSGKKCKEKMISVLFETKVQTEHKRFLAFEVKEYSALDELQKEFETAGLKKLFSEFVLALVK

Compound: COc1ccc(Cn2ccc3ccc(C(=O)NO)cc32)cc1
Assay: dose-dependent thermal stabilisation call (2D-TPP, DLPTP, 10% FDR) (binary (1 = stabilised)); higher = stabilised by the compound
Settings: system: HL-60 intact cells; concentration range 0.04-10 µM

Row | Target | dose-dependent thermal stabilisation call
1 | SACM1L (UniProt Q9NTJ5) | inactive: 0
2 | RPL7L1 (UniProt Q6DKI1) | inactive: 0
3 | RSF1 (UniProt Q96T23) | inactive: 0
4 | SAPS1 (UniProt Q9UPN7) | inactive: 0
5 | RINT1 (UniProt Q6NUQ1) | inactive: 0
6 | RPL18 (UniProt Q07020) | inactive: 0
7 | RNF103 (UniProt O00237) | inactive: 0
8 | RNF169 (UniProt Q8NCN4) | inactive: 0
9 | RNMT (UniProt O43148) | inactive: 0
10 | RPL37A (UniProt P61513) | inactive: 0
11 | ROCK2 (UniProt O75116) | inactive: 0
12 | RSBN1 (UniProt Q5VWQ0) | inactive: 0
13 | RRM2 (UniProt P31350) | inactive: 0
14 | RFC5 (UniProt P40937) | inactive: 0
15 | RIOK3 (UniProt O14730) | inactive: 0
16 | RECQL (UniProt P46063) | inactive: 0
17 | ROCK1 (UniProt Q13464) | inactive: 0
18 | ROD1 (UniProt O95758) | inactive: 0
19 | RHOT2 (UniProt Q8IXI1) | inactive: 0

Row | Target | dose-dependent thermal stabilisation call
20 | SAP18 (UniProt O00422) | inactive: 0
21 | RXRB (UniProt P28702) | inactive: 0
22 | RRAGA (UniProt Q7L523) | inactive: 0
23 | SAMM50 (UniProt Q9Y512) | inactive: 0
24 | RPS17 (UniProt P08708) | active: 1
25 | RSAD1 (UniProt Q9HA92) | inactive: 0
26 | RPUSD2 (UniProt Q8IZ73) | inactive: 0
27 | RPUSD3 (UniProt Q6P087) | inactive: 0
28 | RPL23 (UniProt P62829) | inactive: 0
29 | REXO1 (UniProt Q8N1G1) | inactive: 0
30 | RRBP1 (UniProt Q9P2E9) | inactive: 0
31 | S100A11 (UniProt P31949) | inactive: 0
32 | RRM1 (UniProt P23921) | inactive: 0
33 | RWDD3 (UniProt Q9Y3V2) | inactive: 0
34 | RUFY3 (UniProt Q7L099) | inactive: 0
35 | RPL26 (UniProt P61254) | inactive: 0
36 | RNASEL (UniProt Q05823) | inactive: 0
37 | RCBTB1 (UniProt Q8NDN9) | inactive: 0

Reformatted tab-delimited: part of the list above.
Row	Target	dose-dependent thermal stabilisation call
32	RRM1 (UniProt P23921)	inactive: 0
33	RWDD3 (UniProt Q9Y3V2)	inactive: 0
